Some of the results follow. Shown are side measurements of this screen, not its main read-out; they come without a call. Compounds called inactive in the main read-out are mostly missing here. The note in brackets gives the kind of curve behind each potency; many fits are weak.
Test: qHTS Assay for Lipid Storage Modulators in Drosophila S3 Cells;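 on cell number change: cells counted by Cell Tracker Red CMTPX staining in the red channel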
Settings: BODIPY lipid droplet fluorescence, 18-24 h; for cell number change: measured here: cell count max response, cells fed with added oleic acid
How it was run: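 Drosophila S3 cells loaded with oleic acid (400 uM, as added) and compounds at several concentrations; lipid droplets imaged by 488-nm laser-scanning cytometry, 500–530 nm intensity and object ratio to cell channel. Percent activity normalized to 20 uM Triacsin C.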

[1] = measured here: cell number channel AC50, cells fed with added oleic acid
[2] = measured here: lipid fluorescence (Fed channel) AC50, cells fed with added oleic acid

| SMILES | cell number change | AC50 [1] | AC50 [2] |
| --- | --- | --- | --- |
| CCc1ccccc1NC(=O)CN1CCC(NC(=O)COC)CC1 | -72.4% | 18.4 µM [falling, single point] | 18.4 µM [falling, partial curve] |
| COc1cccc(NC(=O)CNC(=O)c2cccs2)c1 | 54.6% | 29.1 µM [rising, single point] | – |
| COc1ccc(F)cc1S(=O)(=O)N1CCCC(C)C1 (stereo unspecified) | 23.3% | – | 23.1 µM [falling, partial curve] |
| COc1ccccc1N1CC(C(=O)Nc2cccc(C(=O)O)c2)CC1=O (stereo unspecified) | – | – | 5.8 µM [falling, partial curve] |
| O=C1N(Cc2ccc3c(c2)OCO3)c2ccccc2C1(O)c1c[nH]c2ccccc12 (stereo unspecified) | 24.1% | 0.259 µM [rising, full curve, poor fit] | 6.51 µM [rising, partial curve, poor fit] |
| COc1ccccc1-c1cc(C(F)(F)F)nc(NCc2cccs2)n1 | -1.01% | – | – |
| COc1ccc(C(c2oc(CO)cc(=O)c2O)c2oc(CO)cc(=O)c2O)cc1OC | 0.113% | – | 1.16 µM [falling, full curve, poor fit] |
| CCOc1ccc(CNC23CN4CN(CN(C4)C2)C3)cc1 | 8.12% | – | – |
| Cc1nc(/N=C\c2ccc(N(C)C)cc2)sc1C | -14.1% | – | 0.92 µM [rising, full curve, poor fit] |
| COc1ccc2c(CC(=O)Nc3ncc(C)s3)coc2c1 | 40.3% | 11.6 µM [rising, partial curve, poor fit] | – |
| CCc1nnc(NC(=O)CSc2nc(C)cs2)s1 | 23.7% | – | – |
| CCOC(=O)C(C)Sc1ncnc2c1nnn2-c1ccc(F)cc1 (stereo unspecified) | -31.8% | 1.64 µM [falling, full curve] | 29.1 µM [falling, single point] |
| CCC(Oc1ccc2c(=O)c(-c3ccccc3OC)coc2c1)C(=O)OCc1ccccc1 (stereo unspecified) | -40.4% | 3.66 µM [falling, full curve] | – |
| Cc1ccc(S(=O)(=O)NCCn2nc(C)nc2C)cc1 | 10.5% | – | – |
| COCc1cc(=O)n2[nH]c(-c3ccc(C)cc3)cc2n1 | -76.4% | 25.9 µM [falling, single point] | 5.17 µM [falling, single point] |
| Cc1cc(OCC(=O)NCCCn2ccnc2)c2c(C)c(C)c(=O)oc2c1 | – | – | 0.731 µM [falling, full curve, poor fit] |
| CCn1c(=O)c2ccccc2n(Cc2cccc(C)c2)c1=O | 26.4% | – | 11.6 µM [rising, partial curve] |
| Cc1nc(NC(=O)/C=C/c2ccccc2)n[nH]1 | -41.3% | 20.6 µM [falling, single point] | 25.9 µM [falling, single point] |
| COc1ccccc1C(=O)Nc1ccc(NC(=O)c2ccco2)c(C)c1 | -10.8% | – | 0.058 µM [falling, full curve, poor fit] |
| Cc1ccc(C)c(NC(=O)CN(C)C(=O)c2cccc(N3C(=O)CCC3=O)c2)c1 | 150% | 18.4 µM [rising, partial curve] | 29.1 µM [rising, single point] |
| Cc1cccc(NC2=CC(=O)OC(C)C2)c1 (stereo unspecified) | 26.9% | 0.651 µM [falling, full curve] | 6.51 µM [falling, single point] |
| CN(CC(O)COc1ccccc1F)C1CCCCC1 (stereo unspecified) | -16.1% | – | 35.5 µM [falling, single point] |
| O=C(c1ccccn1)N1N=C2/C(=C/c3ccccc3)CCCC2C1c1ccccc1 (stereo unspecified) | -0.804% | 2.31 µM [rising, partial curve] | – |
| CCOc1ccccc1NC(=O)NS(=O)(=O)c1ccc(C)cc1 | 6.09% | 4.61 µM [falling, single point] | – |
| CCOC(=O)c1sc(NC(=O)CSc2ncn[nH]2)c(C#N)c1C | -20.1% | – | 2.91 µM [rising, partial curve] |
| COC(=O)C1(Cc2cc(-c3cccnc3)no2)CCN(C(=O)OC(C)(C)C)CC1 | 12% | – | 10.3 µM [falling, partial curve, poor fit] |
| COc1cc(OC)c(OC)cc1/C=N/Nc1ncnc2c1[nH]c1ccccc12 | 7.83% | 6.51 µM [rising, single point] | 4.11 µM [rising, single point] |
| O=C(CN1CCCCC1)Nc1ccc(S(=O)(=O)N2CCCCCC2)cc1 | -8.65% | – | – |
| Cc1ccc(-n2c(SCC(N)=O)nnc2-c2cccnc2)c(C)c1 | 6.85% | – | 14.6 µM [rising, single point] |
| CCN1C(=O)/C(=C/c2cccs2)SC1=Nc1ccc(OC)cc1 | -11.7% | 1.03 µM [rising, partial curve] | – |

2 compounds from above, showing only AC50 [1] and AC50 [2].
SMILES	AC50 [1]	AC50 [2]
COc1cc(OC)c(OC)cc1/C=N/Nc1ncnc2c1[nH]c1ccccc12	6.51 µM [rising, single point]	4.11 µM [rising, single point]
Cc1ccc(-n2c(SCC(N)=O)nnc2-c2cccnc2)c(C)c1	–	14.6 µM [rising, single point]
